According to PubChem BioAssay AID588499 (NMMLSC, 2011):
Screen size: about 360,000 compounds; about 610 (0.17%) were called active. The inconclusive results got no clear call from the source; some entries with a clear call stand among them for comparison. Rule as the data show it: active = inhibition above about 30%; inconclusive = no clear call, values can overlap the other calls; inactive = below that.

These compounds were tested on Botulinum neurotoxin type A light chain protease (Clostridium botulinum A str. ATCC 3502) (assay: blockers of BoNT/A LC substrate cleavage – biochemical, flow cytometry, MLPCN library, primary screen (AID 588499; also: plate controls were buffer without enzyme for full effect and enzyme alone for no effect)). Conditions: multiplex microsphere protease substrate cleavage, at 10 µM, stronger effect = higher value.

| SMILES | inhibition |
| --- | --- |
| O=C(CSc1nc2ccccc2c(=O)n1Cc1ccco1)N1CCCCCC1 | inconclusive: 0% |
| Cc1ccccc1N=C1NC(=O)/C(=C/c2cccn2C)S1 | inconclusive: 7.9% |
| CC(=O)C1=CCC(c2ccco2)N(S(=O)(=O)c2ccc(C)cc2)C1 (stereo not given) | inactive: 0.5% |
| COc1ccc(N2CCC(CNC(=O)Nc3ccc(Cl)cc3)C2)cc1 (stereo not given) | inactive: -0.2% |
| COc1ccc(S(=O)(=O)NC2CCCC2)cc1C(N)=O | inactive: 2.3% |
| Cc1ccc(CSc2nc3ccncc3[nH]2)cc1 | inactive: 0% |
| Cc1cc2cc(CN(Cc3ccco3)S(=O)(=O)c3c(C)ccc4nsnc34)c(=O)[nH]c2cc1C | inconclusive: -0.1% |
| Cc1cc(C)cc(NC(=O)CCNS(=O)(=O)c2ccc3c(c2)oc(=O)n3C)c1 | inconclusive: 15.9% |
| CCOc1ccc(NC(=O)COC(=O)C2COc3ccccc3O2)cc1 (stereo not given) | inactive: -0.4% |
| CSc1ccccc1NC(=O)c1cnccn1 | inconclusive: -1.5% |
| CCOC(=O)C(=O)NNc1ccccc1OC | inconclusive: -21.3% |
| Cc1ccc(C)c(NC(=O)CCN2CCCC(C)C2)c1 (stereo not given) | inconclusive: -3.8% |
| C=CCn1c(SCC(=O)c2ccc(Br)cc2)nnc1C(CC(C)C)NC(=O)c1cccs1 (stereo not given) | inconclusive: -1.2% |
| Cc1ccccc1OCCn1cc(C=O)c2ccccc21 | inactive: -0.4% |
| CCOC(=O)N1CCN(C(=O)c2cnn3c(C)c(Cc4ccc(C)cc4)c(C)nc23)CC1 | inconclusive: 1.8% |
| CCN(C(=O)COC(=O)Cc1cccc2ccccc12)C1CCS(=O)(=O)C1 (stereo not given) | inactive: 1.1% |
| O=C1CCCN1CN(C(=O)c1ccc2c(c1)OCO2)c1ccc(F)cc1 | inconclusive: -5.1% |
| O=C(NNC(=O)c1cc(-c2ccc(Cl)cc2)nc2ccccc12)c1csc(N2CCOCC2)n1 | inactive: -0.8% |
| Cc1c(S(=O)(=O)c2ccccn2)c(N)n(Cc2cccc(Cl)c2)c1C | inconclusive: -2.1% |
| COc1ccc(C(=O)Nc2c(N)nc[nH]c2=O)cc1 | inactive: -0.1% |
| CCC(=O)O/N=C(\N)c1ccc(Oc2cc(C)c(Cl)c(C)c2)c([N+](=O)[O-])c1 | inconclusive: -25.6% |
| CC(=O)Nc1ccc(CN2C(=O)C(CCc3ccccc3)ON=C2c2cnccn2)cc1 (stereo not given) | inactive: 0% |
| O=[N+]([O-])c1cccc(S(=O)(=O)NCCCn2ccnc2)c1 | inactive: -3.2% |

| SMILES | inhibition |
| --- | --- |
| CCCCn1c(CCNC(=O)c2cccs2)nc2ccccc21 | inactive: -0.1% |
| CCCCN(CC)CCNC(=O)c1cc2c(=O)n(C)c3ccccc3c2s1 | inactive: 1.4% |
| COc1ccc(-c2nn(-c3ccccc3)cc2C=O)cc1[N+](=O)[O-] | inconclusive: -5.8% |
| CCOC(=O)CN1C(=N)N(c2nc(NC(C)C)nc(OC)n2)CC1=O | inconclusive: 3.3% |
| C=CCOC(=O)C1=C[C@H](c2ccc(Br)cc2)C[C@H](OCc2ccc(CO)cc2)O1 | inactive: 0.8% |
| CCNC(=O)C1(C)CCN(Cc2ccc(-c3ccccc3)cc2)C1 (stereo not given) | inactive: -0.2% |
| O=C(CCC1CCCC1)N1CCN(S(=O)(=O)c2ccc(Br)cc2)CC1 | active: 80% |
| Cc1cccc(CN(CC(=O)N/N=C/c2cccs2)S(=O)(=O)c2ccc(Cl)cc2)c1 | inactive: -0.6% |
| COCCn1c(=NC(=O)c2cc(-c3cccs3)nc3ccccc23)sc2cc(S(N)(=O)=O)ccc21 | active: 34.3% |
| O=C(O)CCN1C(=O)/C(=C\c2ccc(-c3nc4ccccc4s3)o2)SC1=S | active: 46.7% |
| COc1ccccc1N1CCN(Cc2cc(=O)c(OCC(=O)NC3CCCC3)co2)CC1 | inconclusive: -11% |
| CCOP(=O)(Cc1ccc(C(=O)CC)o1)OCC | inconclusive: 20.9% |
| Cc1ccc(-n2ncc(C(=O)N3CCN(C(=O)c4ccco4)CC3)c2C2CCN(C(=O)OC(C)(C)C)CC2)cc1C | inconclusive: -2.3% |
| Cc1cc2[nH]c(=O)c(=O)[nH]c2cc1S(=O)(=O)N1CCC(C)CC1 | inactive: 0.1% |
| CCn1c(COc2ccc(Cl)c(C)c2)nnc1SCC(=O)N1CCCC1 | inconclusive: -1.4% |
| CCOc1cc(C2C(C#N)=C(N)OC(C)=C2C(C)=O)c(Br)c(Br)c1OC(C)C (stereo not given) | inactive: 3% |
| CC(C)C(C(=O)Nc1ccc2c(c1)OCO2)N1C(=O)c2ccccc2C1=O (stereo not given) | inconclusive: 2.9% |
| COCOCCn1cc(CN2CCS(=O)(=O)N(Cc3ccc(-c4ccc(OC)nc4)cc3)C(C(C)C)C2=O)nn1 (stereo not given) | inactive: -0.3% |
| CCc1cc(/C(Cc2cscn2)=N\O)c(O)cc1O | inactive: 0% |
| Cc1ccc2cccnc2c1NC(=S)NC(=O)c1ccccc1 | inconclusive: 0.2% |
| CC1(C)CC(=O)C(C=NCCN2CCN(C(=O)CC3CCCC3)CC2)=C(O)C1 | inactive: 0.5% |
| CCN(CC)c1ccc(/C=N/Nc2nn[nH]n2)cc1 | inconclusive: -0.2% |
| COc1ccc2c(c1)nc(-c1cccc(Br)c1)c(=O)n2C(c1ccccn1)c1nc2ccccc2[nH]1 (stereo not given) | active: 30.4% |

| SMILES | inhibition |
| --- | --- |
| CCCC1C2CN(C(C)C)CC=C2C(C#N)=C(N)C1(C#N)C#N (stereo not given) | inactive: 1.1% |
| Oc1c(C=C2N=c3ccccc3=N2)sc(=S)n1C1CCCC1 | active: 70.4% |
| Cn1ccnc1SCc1ccc([N+](=O)[O-])cc1 | inconclusive: 5.2% |
| COC(=O)c1c(C)oc(C)c1S(=O)(=O)NCc1cccs1 | inconclusive: -4.9% |
| COc1ccc(NC(=O)CN(C)C(=O)C2(c3ccccc3)CCCC2)cc1 | inactive: 0.3% |
| COc1ccccc1NC(=S)N1CCN(c2ccccc2F)CC1 | inconclusive: 7.1% |
| Cn1c(=O)c2c(nc(CN3CCN(c4ccc(F)cc4)CC3)n2Cc2ccccc2F)n(C)c1=O | inconclusive: -8% |
| COc1cccc(C2CN(c3ccc(F)cc3F)N=C2c2cccs2)c1OC (stereo not given) | inactive: 2.5% |
| CN(C)/C=N/c1c(C(=O)NCc2ccccc2)nnn1Cc1ccccc1 | inactive: 7.8% |
| O=C(NCCC(=O)N1CCN(S(=O)(=O)c2ccccc2F)CC1)Nc1ccccc1 | inactive: -1.8% |
| CNC(=O)N(C1=NCC(C)S1)c1ccc(F)cc1F (stereo not given) | inconclusive: -2.6% |
| NCCc1nnc(SCC(=O)Nc2cccc(Cl)c2)o1 | inactive: -2.2% |
| CC(=O)Nc1ccc(S(=O)(=O)NCc2ccc3c(c2)cc(C)n3C)cc1 | active: 71.8% |
| O=[N+]([O-])c1ccc(C2=NN(CCO)C(=Nc3ccc(OC(F)(F)F)cc3)SC2)cc1 | inconclusive: 3.8% |
| Cc1ccc(CNC(=O)C2CCCN(S(=O)(=O)c3c(C)n[nH]c3C)C2)cc1 (stereo not given) | inconclusive: -2% |
| C/C(=N\OCC(=O)O)c1ccc(Cl)cc1 | inconclusive: 5.1% |
| O=C(Cc1ccccc1)Nc1ccc(C(=O)O)cc1 | inconclusive: -1.1% |
| CCCCCOC(=O)CCN1C(=O)/C(=C2\SC(=S)N(CCC(=O)OCCCCC)C2=O)SC1=S | active: 39.8% |
| CC(C)Cc1nc(Cl)c(C#N)c2c1CCC2 | inconclusive: -5.3% |
| CN1CCN2c3ccc(N)cc3CC3(C(=O)NC(=O)NC3=O)C2C1 (stereo not given) | inactive: -9.5% |
| CCn1c2ccccc2c2nc3cc(S(=O)(=O)N4CCOCC4)ccc3nc21 | active: 39.6% |
| COc1cc(NC(=O)CSc2nc(=O)n(CCN3CCOCC3)c3c2CCCC3)cc(OC)c1 | inactive: 3.7% |
| CC(=O)c1c(OC(=O)c2cccc(Cl)c2)c2ccccc2n1C | inconclusive: -37.2% |

| SMILES | inhibition |
| --- | --- |
| CC1Oc2ccccc2N(Cc2cccnc2)C1=O (stereo not given) | inconclusive: 1.6% |
| CC1(C)S[C@@H]2[C@H](NC(=O)[C@H](N)c3ccccc3)C(=O)N2[C@H]1C(=O)OC1OC(=O)c2ccccc21 (stereo not given in full) | inactive: -1.1% |
| CNc1ccc(Br)cc1C(O)c1ccccc1 (stereo not given) | inconclusive: -60.1% |
| Clc1cccc(-c2cccc3nccn23)c1Cl | inactive: 0.3% |
| CC1Cc2ccccc2N1C(=O)Cn1c(=O)cc(O)c2ccccc21 (stereo not given) | inconclusive: -4.1% |
| Cc1cc(C)c(S(=O)(=O)NCC(c2ccco2)N2CCc3ccccc3C2)c(C)c1 (stereo not given) | inactive: -2.1% |
| CCC(=O)OCc1c(C(F)(F)F)nn(C)c1Oc1cccc(C(F)(F)F)c1 | inconclusive: 11% |
| COC(=O)c1ccc2c(=O)n(NC(=O)C(c3ccccc3)c3ccccc3)c(=S)[nH]c2c1 | inconclusive: -0.6% |
| O=C(C1CCCN1S(=O)(=O)c1cccc2cccnc12)N1CCc2ccccc21 (stereo not given) | inactive: 1% |
| CN(c1ccccc1)S(=O)(=O)c1ccc(C(=O)N2CCN(c3ccccc3Cl)CC2)cc1 | inconclusive: -12.2% |
| COc1ccc(OC)c(C2Nc3ccccc3NC3=C2C(=O)CC(C)(C)C3)c1 (stereo not given) | inactive: 1.7% |
| CC1CN/C(=C\C(=O)c2ccccc2)C(=O)N1 (stereo not given) | inactive: -0.8% |
| Cc1ccc2c(n1)sc1c(-c3ccc(Br)cc3)c(C#N)c(N)nc12 | active: 44% |
| O=c1oc2ccccc2cc1-c1ccccc1 | inactive: -0.1% |
| CCSc1ccccc1C(=O)Nc1cccnc1 | inconclusive: -2.1% |
| O=C1C(Cl)=C(NCCc2ccccc2)C(=O)N1CCc1ccccc1 | inactive: 1.2% |
| CCc1ccc(C(=O)NNc2ccc(Cl)cc2)cc1 | inconclusive: -3.1% |
| COc1cc(C(O)c2nc(-c3cc4ccccc4o3)cs2)ccc1F (stereo not given) | inactive: -0.2% |
| CC1(Cc2ccc(OC(F)(F)F)cc2)C(=O)Nc2ccc(S(=O)(=O)NC3CCCCC3)cc21 (stereo not given) | inactive: -0.5% |
| Cc1ccc(S(=O)(=O)N2C[C@H]3C(=O)C[C@@H](c4ccccc4)N(S(=O)(=O)c4ccc(C)cc4)[C@H]3C[C@H]2c2cccs2)cc1 | inactive: 1.1% |
| CCn1c(=NC(=O)CN2C(=O)CCC2=O)sc2c(OC)ccc(OC)c21 | inactive: 0.2% |

Compounds above containing fluorine, in the order listed:

| SMILES | inhibition |
| --- | --- |
| O=C1CCCN1CN(C(=O)c1ccc2c(c1)OCO2)c1ccc(F)cc1 | inconclusive: -5.1% |
| COc1ccccc1NC(=S)N1CCN(c2ccccc2F)CC1 | inconclusive: 7.1% |
| Cn1c(=O)c2c(nc(CN3CCN(c4ccc(F)cc4)CC3)n2Cc2ccccc2F)n(C)c1=O | inconclusive: -8% |
| COc1cccc(C2CN(c3ccc(F)cc3F)N=C2c2cccs2)c1OC (stereo not given) | inactive: 2.5% |
| O=C(NCCC(=O)N1CCN(S(=O)(=O)c2ccccc2F)CC1)Nc1ccccc1 | inactive: -1.8% |
| CNC(=O)N(C1=NCC(C)S1)c1ccc(F)cc1F (stereo not given) | inconclusive: -2.6% |
| O=[N+]([O-])c1ccc(C2=NN(CCO)C(=Nc3ccc(OC(F)(F)F)cc3)SC2)cc1 | inconclusive: 3.8% |
| CCC(=O)OCc1c(C(F)(F)F)nn(C)c1Oc1cccc(C(F)(F)F)c1 | inconclusive: 11% |
| COc1cc(C(O)c2nc(-c3cc4ccccc4o3)cs2)ccc1F (stereo not given) | inactive: -0.2% |
| CC1(Cc2ccc(OC(F)(F)F)cc2)C(=O)Nc2ccc(S(=O)(=O)NC3CCCCC3)cc21 (stereo not given) | inactive: -0.5% |

Random excerpt: 2 compounds from above.

| SMILES | inhibition |
| --- | --- |
| COC(=O)c1c(C)oc(C)c1S(=O)(=O)NCc1cccs1 | inconclusive: -4.9% |
| CC1CN/C(=C\C(=O)c2ccccc2)C(=O)N1 (stereo not given) | inactive: -0.8% |
